# Data from publication doi:10.1101/199539.
# Chains of the proteins cited; added tags and fusions are not shown.
# UniProt Q96GY3: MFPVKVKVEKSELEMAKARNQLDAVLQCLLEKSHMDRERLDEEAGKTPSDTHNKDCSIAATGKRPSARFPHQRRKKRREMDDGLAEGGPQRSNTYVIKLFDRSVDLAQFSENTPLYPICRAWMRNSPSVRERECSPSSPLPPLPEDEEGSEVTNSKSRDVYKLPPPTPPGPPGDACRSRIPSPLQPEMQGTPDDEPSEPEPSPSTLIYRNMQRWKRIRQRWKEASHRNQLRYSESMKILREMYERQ
# UniProt P10244: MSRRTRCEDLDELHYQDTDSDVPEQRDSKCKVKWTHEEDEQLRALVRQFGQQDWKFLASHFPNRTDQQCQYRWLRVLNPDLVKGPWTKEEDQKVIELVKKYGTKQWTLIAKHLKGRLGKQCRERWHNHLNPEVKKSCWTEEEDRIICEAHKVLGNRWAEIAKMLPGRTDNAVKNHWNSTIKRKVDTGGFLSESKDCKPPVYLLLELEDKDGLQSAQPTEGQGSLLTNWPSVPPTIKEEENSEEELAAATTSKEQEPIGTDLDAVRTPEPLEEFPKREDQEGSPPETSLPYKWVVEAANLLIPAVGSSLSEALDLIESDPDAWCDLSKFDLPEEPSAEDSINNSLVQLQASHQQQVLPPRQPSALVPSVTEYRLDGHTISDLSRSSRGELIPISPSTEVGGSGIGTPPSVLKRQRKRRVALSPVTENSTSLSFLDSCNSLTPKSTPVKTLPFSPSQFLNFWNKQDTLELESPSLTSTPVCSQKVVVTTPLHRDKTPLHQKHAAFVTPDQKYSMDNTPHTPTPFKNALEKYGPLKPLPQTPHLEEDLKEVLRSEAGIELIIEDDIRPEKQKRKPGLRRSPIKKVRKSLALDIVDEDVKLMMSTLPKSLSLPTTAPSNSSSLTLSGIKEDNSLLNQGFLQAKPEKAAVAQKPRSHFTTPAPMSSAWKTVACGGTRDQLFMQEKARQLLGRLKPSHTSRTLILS
# UniProt Q5TKA1: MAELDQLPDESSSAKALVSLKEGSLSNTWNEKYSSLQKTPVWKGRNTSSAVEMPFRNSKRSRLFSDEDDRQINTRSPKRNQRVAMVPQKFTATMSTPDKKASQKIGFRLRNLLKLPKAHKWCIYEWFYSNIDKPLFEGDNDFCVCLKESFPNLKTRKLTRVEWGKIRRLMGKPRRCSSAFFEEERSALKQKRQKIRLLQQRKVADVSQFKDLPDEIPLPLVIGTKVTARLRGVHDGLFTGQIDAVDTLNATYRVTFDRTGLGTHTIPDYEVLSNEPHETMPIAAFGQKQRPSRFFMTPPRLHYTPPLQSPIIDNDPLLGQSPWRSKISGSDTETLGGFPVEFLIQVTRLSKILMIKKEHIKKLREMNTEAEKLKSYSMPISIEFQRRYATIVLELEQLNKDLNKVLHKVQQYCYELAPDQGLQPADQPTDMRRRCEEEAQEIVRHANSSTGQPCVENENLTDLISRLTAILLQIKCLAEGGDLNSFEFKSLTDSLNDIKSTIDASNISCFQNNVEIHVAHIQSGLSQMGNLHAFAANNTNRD
# UniProt Q08999: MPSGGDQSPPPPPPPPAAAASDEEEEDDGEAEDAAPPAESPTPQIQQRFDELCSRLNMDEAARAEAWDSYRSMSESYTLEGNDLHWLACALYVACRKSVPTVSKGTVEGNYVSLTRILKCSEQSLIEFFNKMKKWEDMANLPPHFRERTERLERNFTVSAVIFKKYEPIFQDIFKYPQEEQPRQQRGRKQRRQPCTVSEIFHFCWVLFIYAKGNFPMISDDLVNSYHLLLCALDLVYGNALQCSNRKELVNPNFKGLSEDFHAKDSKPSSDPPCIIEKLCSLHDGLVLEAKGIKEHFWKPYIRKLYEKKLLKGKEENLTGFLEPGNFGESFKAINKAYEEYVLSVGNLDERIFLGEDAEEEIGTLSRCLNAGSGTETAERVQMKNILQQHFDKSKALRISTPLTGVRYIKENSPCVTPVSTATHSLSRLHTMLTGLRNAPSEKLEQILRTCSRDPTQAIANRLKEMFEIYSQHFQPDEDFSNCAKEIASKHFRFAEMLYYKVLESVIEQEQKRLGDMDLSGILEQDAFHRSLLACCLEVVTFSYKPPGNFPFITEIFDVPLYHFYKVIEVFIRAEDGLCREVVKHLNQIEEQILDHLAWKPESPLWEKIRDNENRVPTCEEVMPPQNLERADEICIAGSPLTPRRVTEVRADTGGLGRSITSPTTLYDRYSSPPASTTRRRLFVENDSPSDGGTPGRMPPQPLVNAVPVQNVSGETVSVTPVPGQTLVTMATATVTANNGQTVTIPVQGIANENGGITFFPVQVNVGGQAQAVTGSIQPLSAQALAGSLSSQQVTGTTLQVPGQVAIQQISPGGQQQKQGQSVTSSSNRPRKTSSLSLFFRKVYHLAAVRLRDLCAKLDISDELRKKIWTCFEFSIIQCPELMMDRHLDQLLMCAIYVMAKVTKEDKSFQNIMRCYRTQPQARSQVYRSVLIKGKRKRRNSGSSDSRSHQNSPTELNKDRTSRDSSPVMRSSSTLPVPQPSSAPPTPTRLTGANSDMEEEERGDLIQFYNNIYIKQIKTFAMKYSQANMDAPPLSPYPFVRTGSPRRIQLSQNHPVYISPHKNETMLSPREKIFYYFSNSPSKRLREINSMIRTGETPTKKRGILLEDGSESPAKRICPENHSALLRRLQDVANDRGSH
# These are yes or no findings as the source states them, for the method shown. In cells and extracts the contact can be indirect. Some binding calls cover weakened binding; strength is not graded here.
# Biological target: LIN37 (human (endogenous in SKOV3 and BJ-hTERT)) (UniProt Q96GY3)
# Assay: co-IP
row,Substance,binding
1,HA-FLAG-B-Myb (from UniProt P10244 1-700),binds
2,LIN9 (from UniProt Q5TKA1 1-542),binds
3,LIN52-V5 (from UniProt Q52LA3 1-112),binds
4,endogenous LIN52 (from UniProt Q52LA3 1-112),binds
5,p130 (from UniProt Q08999 1-1139),binds

# Biological target: LIN37 (human (endogenous in SKOV3 and BJ-hTERT)) (UniProt Q96GY3)
# Assay: co-IP
# Remark: another data set of the same source
row,Substance,binding
1,p130 (from UniProt Q08999 1-1139),binds
